These results are taken from the supplement of paper PMC9135407.

Structures can show the parent of a compound that is named as a salt. ± gives the standard deviation of the averaged measurements. The list shows a part of the results. Part of the spread comes from offsets between plates or batches.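 Primary human stellate myofibroblasts activated in culture; inactivation shown by regained lipid droplets. Readout: fraction of Hoechst-counted cells exceeding a per-plate Bodipy threshold, duplicate wells, each plate with DMSO negative and nortriptyline positive controls. Hits: control-normalized score beyond the plate's top-tenth-percentile nortriptyline wells, or among its three best wells. Final well concentrations unstated.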

The subject of the assay is primary human hepatic stellate cells (donor 1). Nature of the assay: percent Bodipy-positive cells; higher = more lipid droplet accumulation. Conditions: 48 h.
Where [1] appears, read: library stock concentration: 3.33 mM.
Where [2] appears, read: library stock concentration: 10 mM.
The mark [3] stands for this setting: library stock concentration: 1 mM.
The mark [4] stands for this setting: library stock concentration: 80 uM.
[5] abbreviates: library stock concentration: 400 uM.
Setting [6] is: library stock concentration: 2 mM.

With `Cc1cc(CN2CCN(c3c(Br)cnc4[nH]c(-c5ccc(N6CCN(C)CC6)cc5)nc34)CC2)no1`, the “percent Bodipy-positive cells” value under setting [1] stood at 97.7 ± 2.4%.
With `O=C(CCCCC(=O)Nc1c(I)cc(I)c(C(=O)O)c1I)Nc1c(I)cc(I)c(C(=O)O)c1I` [Iodipamide], the “percent Bodipy-positive cells” value is 12.6 ± 1.2%. Moreover, under setting [2], the “percent Bodipy-positive cells” value was 36.4 ± 19%.
With `COc1ccc(/C=C/c2cc(Cl)cc(Cl)c2)cc1`, under setting [3], the “percent Bodipy-positive cells” value is 8.36 ± 2.5%.
For `CO[C@@H]1[C@H](O)[C@@H](CO)O[C@H]1n1cnc2c(NC3CCCCC3)ncnc21`, the “percent Bodipy-positive cells” value under setting [2] stood at 10.4 ± 3.7%.
Regarding `Nc1c(S(=O)(=O)O)cc(Nc2ccc(Nc3nc(Cl)nc(Nc4cccc(S(=O)(=O)O)c4)n3)c(S(=O)(=O)O)c2)c2c1C(=O)c1ccccc1C2=O` [Reactive Blue 2], the “percent Bodipy-positive cells” value under setting [2] came to 2.24 ± 0.31%.
Still for that read-out and setting: with `CC(C)C1C2CCC(C2)C1N` (stereo not drawn) the figure was 26.5 ± 1.4%; with `CSc1nc(N)c2ncn([C@@H]3O[C@H](COP(=O)(O)OP(=O)(O)O)[C@H](O)C3O)c2n1` (stereo partly drawn), 50.3 ± 7.2%.
On the same count and under the same terms, with `Cc1ccc(C(=O)C(C)CN2CCCCC2)cc1` (stereo not drawn) [Tolperisone hydrochloride] the figure was 15.7 ± 1.9%.
For the compound `Cc1ccc(C(=O)C(C)CN2CCCCC2)cc1` (stereo not drawn) [Tolperisone HCl], the “percent Bodipy-positive cells” value is, setting by setting: under setting [1], 8.117 ± 0.04%; under setting [2], 31.3 ± 8.4%.
Take `Cc1c(C)c2c(c(C)c1O)CCC(C)(CCCC(C)C(=O)O)O2` (stereo not drawn): under setting [3], the “percent Bodipy-positive cells” value amounted to 8.96 ± 4.2%.
On to `CNCC[C@@H](Oc1ccccc1C)c1ccccc1` [Atomoxetine hydrochloride], for which the “percent Bodipy-positive cells” value (library stock concentration: 7.2 mM) amounted to 30.9 ± 6.3%.
`CNCC[C@@H](Oc1ccccc1C)c1ccccc1` [Atomoxetine HCl]: the “percent Bodipy-positive cells” value runs as follows: under setting [1], 50.2 ± 2.5%; under setting [2], 53.3 ± 12%.
For `CNCC[C@@H](Oc1ccccc1C)c1ccccc1` [Tomoxetine hydrochloride], under setting [2], the “percent Bodipy-positive cells” value turned out to be 36.3 ± 2.8%.
With `CNCC[C@@H](Oc1ccccc1C)c1ccccc1` [Tomoxetine], under setting [2], the “percent Bodipy-positive cells” value is 61.8 ± 0.67%.
The same measure, in the same setting: with `c1ccc(CN2CCC3(CCCc4ccccc43)CC2)cc1` [L-687,384 hydrochloride] the figure was 91.2 ± 5.3%.
Take `CCC(CC)(NC(=O)C(C)C)C(=O)N[C@@H](CCCN=C(N)N)C(=O)NC1(C(=O)NC(c2ccc(F)cc2)c2ccc(F)cc2)CCCC1`: the “percent Bodipy-positive cells” value turned out to be 25.1 ± 0.91% under setting [1] and 30.9 ± 6.6% under setting [2].
Consider `CCN(CC)CCCN(c1ccccc1)C1Cc2ccccc2C1` [Aprindine hydrochloride], for which the “percent Bodipy-positive cells” value under setting [2] was 57.1 ± 8.8%.
As to `CC(C)=CCC/C(C)=C\CO` [Nerol], under setting [2], the “percent Bodipy-positive cells” value came out at 21.94 ± 0.03%.
With `COCCCOc1ccnc(C[S+]([O-])c2nc3ccccc3[nH]2)c1C` (stereo not drawn) [Rabeprazole sodium], the “percent Bodipy-positive cells” value (library stock concentration: 5.2 mM) was found to be 15.8 ± 3%.
On to `COCCCOc1ccnc(C[S+]([O-])c2nc3ccccc3[nH]2)c1C` (stereo not drawn), for which, under setting [2], the “percent Bodipy-positive cells” value stood at 5.79 ± 1.9%.
As to `Cc1cc(Nc2ncc(Cl)c(Nc3ccccc3S(=O)(=O)C(C)C)n2)c(OC(C)C)cc1C1CCNCC1` [Ceritinib], the “percent Bodipy-positive cells” value runs as follows: under setting [4], 29.67 ± 0.18%; under setting [5], 32.3 ± 7.6%; under setting [6], 60.5 ± 15%; under setting [2], 78.8 ± 12%.
As for `Cc1cc(Nc2ncc(Cl)c(Nc3ccccc3S(=O)(=O)C(C)C)n2)c(OC(C)C)cc1C1CCNCC1`, the “percent Bodipy-positive cells” value was 98.9 ± 1.6% under setting [1] and 100% under setting [2].
As for `O=C(O)Cc1cc(I)c(Oc2ccc(O)c(I)c2)c(I)c1` [Tiratricol, 3,3',5-triiodothyroacetic acid], the “percent Bodipy-positive cells” value came to 35.3 ± 5.3%.
On to `O=C(O)Cc1cc(I)c(Oc2ccc(O)c(I)c2)c(I)c1`, for which, under setting [2], the “percent Bodipy-positive cells” value is 33.8 ± 5.5%.
In the case of `O=C(O)Cc1cc(I)c(Oc2ccc(O)c(I)c2)c(I)c1` [Tiratricol], the “percent Bodipy-positive cells” value reads like this: under setting [1], 14.1 ± 2%; under setting [2], 29.6 ± 5%.
As for `C[C@@H](C(=O)O)c1ccc(-c2ccccc2)c(F)c1` [(R)-Flurbiprofen], the “percent Bodipy-positive cells” value under setting [3] came to 7.14 ± 0.14%.
The same measure, in the same setting: with `CC(Cc1ccc(O)c(O)c1)C(C)Cc1ccc(O)c(O)c1` (stereo not drawn) [Nordihydroguaiaretic Acid] the figure was 4.32 ± 1.6%.
Regarding `C(=C(\CCNC1)/C1)(/c2c(cccn2)CC3)\c(ccc(Cl)c4)c34` [Desloratadine], under “library stock concentration: 6.4 mM”, the “percent Bodipy-positive cells” value came out at 72.5 ± 3.4%.
In the case of `C[C@@H](Oc1cc(-c2cnn(C3CCNCC3)c2)cnc1N)c1c(Cl)ccc(F)c1Cl`, the “percent Bodipy-positive cells” value reads like this: under setting [4], 14.4 ± 4.6%; under setting [5], 37.8 ± 13%; under setting [6], 58.3 ± 14%; under setting [2], 89.6 ± 4.4%.
As for `N=C(N=C(N)N)N1CCOCC1` [Moroxidine hydrochloride], the “percent Bodipy-positive cells” value turned out to be 25.8 ± 4.4%.
With `Cn1cc(/C=C/C(=O)c2cccc(F)c2)cc1/C=C/C(=O)NO`, the “percent Bodipy-positive cells” value under setting [4] is 34.1 ± 5.8%, the “percent Bodipy-positive cells” value under setting [5] was determined as 40.9 ± 7%, the “percent Bodipy-positive cells” value under setting [6] was determined as 51 ± 2.4% and the “percent Bodipy-positive cells” value under setting [1] was determined as 16.8 ± 3.2%.
As for `C=C1CCC(O)C/C1=C\C=C1\CCCC2(C)C1CCC2C(C)CCC(O)C(C)(C)O` (stereo not drawn) [24,25-Dihydroxyvitamin D3], the “percent Bodipy-positive cells” value under setting [3] was found to be 6 ± 3.8%.
On to `Nc1nccc2c1ncn2C1C=C(CO)C(O)C1O` (stereo not drawn) [3-Deazaneplanocin A (DZNeP)], for which the “percent Bodipy-positive cells” value is 20.4 ± 0.27% under setting [1] and 35.4 ± 23% under setting [2].
The like results for `Cc1nc(N(C)C(=O)Cc2ccc(-c3ccccn3)cc2)sc1S(N)(=O)=O` [Pritelivir (BAY 57-1293)] were, in that order, 26 ± 7% and 37.2 ± 4.7%.
Take `CC(=O)OCC(=O)[C@@]12OC3(CCCC3)O[C@@H]1C[C@H]1[C@@H]3CCC4=CC(=O)C=C[C@]4(C)[C@@]3(F)[C@@H](O)C[C@@]12C`: under setting [2], the “percent Bodipy-positive cells” value was 18.8 ± 5.5%.
As for `CC(=O)OCC(=O)[C@@]12OC3(CCCC3)O[C@@H]1C[C@H]1[C@@H]3CCC4=CC(=O)C=C[C@]4(C)[C@@]3(F)[C@@H](O)C[C@@]12C` [Amcinonide], the “percent Bodipy-positive cells” value stood at 5.79 ± 1.5% (library stock concentration: 4 mM) and 26.1 ± 5% under setting [2].
For the compound `CC(=O)Nc1ccc([C@H](C)C(=O)Nc2ncc(C(C)C)s2)cc1`, the “percent Bodipy-positive cells” value is, setting by setting: under setting [5], 24.2 ± 0.59%; under setting [6], 53 ± 1.9%; under setting [2], 66.5 ± 1.1%.
Regarding `COc1cc2ncn(-c3cc(OCc4ccccc4S(C)(=O)=O)c(C#N)s3)c2cc1OC` [IKK-3 Inhibitor IX], the “percent Bodipy-positive cells” value under setting [1] was 8.24 ± 1.6%.
